Assay results published in patent publication US6251897A, “6-phenyltetrahydro-1,3-oxazin-2-one derivative and pharmaceutical composition containing the same” (Nikken Chemicals Co., LTD, priority 1996, dated 2001).
Some of these results come from one statement about several compounds together.

Assay: Acute toxicity test
Assay type: in vivo
Conditions: 30 mg/kg intraperitoneally

| SMILES | death / survival rate of the next day |
| --- | --- |
| COc1ccc(C2CCN(Cc3c(C)c4ccccc4n3C(C)=O)C(=O)O2)cc1OC1CCCC1 (centres unmarked) [Compound No. 34, 3-(1-acetyl-3-methyl-2-indolylmethyl)-6-(3-cyclopentyloxy-4-methoxyphenyl)-3,4,5,6-tetrahydro-2H-1,3-oxazin-2-one] | No death was observed |
| COc1ccc(C2CCN(Cc3ccco3)C(=O)O2)cc1OC1CCCC1 (centres unmarked) [Compound No. 35, 6-(3-cyclopentyloxy-4-methoxyphenyl)-3-(2-furylmethyl)-3,4,5,6-tetrahydro-2H-1,3-oxazin-2-one] | No death was observed |
| COc1ccc(C2(c3cccnc3)CCNC(=O)O2)cc1OC1CCCC1 (centres unmarked) [Compound No. 36, 6-(3-cyclopentyloxy-4-methoxyphenyl)-6-(3-pyridyl)-3,4,5,6-tetrahydro-2H-1,3-oxazin-2-one] | No death was observed |
| COc1ccc(C2CCN(Cc3cnccn3)C(=O)O2)cc1OC1CCCC1 (centres unmarked) [Compound No. 37, 6-(3-cyclopentyloxy-4-methoxyphenyl) -3-(2-pyrazinylmethyl)-3,4,5,6-tetrahydro-2H-1,3-oxazin-2-one] | No death was observed |
| COc1ccc(C2CCN(Cc3cccs3)C(=O)O2)cc1OC1CCCC1 (centres unmarked) [Compound No. 38, 6-(3-cyclopentyloxy-4-methoxyphenyl)-3-(2-thienylmethyl)-3,4.56-tetrahydro-2H-1,3-oxazin-2-one] | No death was observed |
| COc1ccc(C2(c3ccccn3)CCNC(=O)O2)cc1OC1CCCC1 (centres unmarked) [Compound No. 39, 6-(3-cyclopentyloxy-4-methoxyphenyl)-6-(2-pyridyl)-3,4,5,6-tetrahydro-2H-1,3-oxazin-2-one] | No death was observed |
| COc1ccc(C2(C)CCNC(=O)O2)cc1OC1Cc2ccccc2C1 (centres unmarked) [Compound No. 40, 6-[3-(2-indanyloxy)-4-methoxyphenyl]-6-methyl-3,4,5,6-tetrahydro-2H-1,3-oxazin-2-one] | No death was observed |
| COc1ccc(C2CCNC(=O)O2)cc1OCCCCCc1ccccc1 (centres unmarked) [Compound No. 41, 6-[4-methoxy-3-(5-phenylpentyloxy)phenyl]-3,4,5,6-tetrahydro-2H-1,3-oxazin-2-one] | No death was observed |
| COc1ccc(C2CCN(C)C(=O)O2)cc1OCCCCCc1ccccc1 (centres unmarked) [Compound No. 42, 6-[4-methoxy-3-(5-phenylpentyloxy)phenyl]-3-methyl-3,4,5,6-tetrahydro-2H-1,3-oxazin-2-one] | No death was observed |
| COc1ccc(C2(C)CCN(C)C(=O)O2)cc1OC1Cc2ccccc2C1 (centres unmarked) [Compound No. 43, 3,6-dimethyl-6-[3-(2-indanyloxy)-4-methoxyphenyl]-3,4,5,6-tetrahydro-2H-1,3-oxazin-2-one] | No death was observed |
| COc1ccc(C2CCN(C)C(=O)O2)cc1OCCc1ccccc1 (centres unmarked) [Compound No. 44, 6-(4-methoxy-3-phenethyloxyphenyl)-3-methyl-3,4,5,6-tetrahydro-2H-1,3-oxazin-2-one] | No death was observed |
| COc1ccc(C2(C)CCNC(=O)O2)cc1OCCCCCc1ccccc1 (centres unmarked) [Compound No. 45, 6-[4-methoxy-3-(5-phenylpentyloxy)phenyl]-6-methyl-3,4,5,6-tetrahydro-2H-1,3-oxazin-2-one] | No death was observed |
| COc1ccc(C2(C)CCNC(=O)O2)cc1OCCc1ccccc1 (centres unmarked) [Compound No. 46, 6-(4-methoxy-3-phenethyloxyphenyl)-6-methyl-3,4,5,6-tetrahydro-2H-1,3-oxazin-2-one] | No death was observed |
| COc1ccc(C2(C)CCN(C)C(=O)O2)cc1OCCCCCc1ccccc1 (centres unmarked) [Compound No. 47, 3,6-dimethyl-6-[4-methoxy-3-(5-phenylpentyloxy)phenyl]-3,4,5,6-tetrahydro-2H-1,3-oxazin-2-one] | No death was observed |
| COc1ccc(C2(C)CCN(C)C(=O)O2)cc1OCCc1ccccc1 (centres unmarked) [Compound No. 48, 3. 6-dimethyl-6-(4-methoxy-3-phenethyloxyphenyl)-3,4,5,6-tetrahydro-2H-1,3-oxazin-2-one] | No death was observed |
| COc1ccc(C2CCN(C)C(=O)O2)cc1OCC1CC1 (centres unmarked) [Compound No. 49, 6-(3-cyclopropylmethyloxy-4-methoxyphenyl)-3-methyl-3,4 5,6-tetrahydro-2H-1,3-oxazin-2-one] | No death was observed |
| COc1ccc(C2(C)CCNC(=O)O2)cc1OCC1CC1 (centres unmarked) [Compound No. 50, 6-(3-cyclopropylmethyloxy-4-methoxyphenyl)-6-methyl-3,4,5,6-tetrahydro-2H-1,3-oxazin-2-one] | No death was observed |
| COc1ccc(C2(C)CCN(C)C(=O)O2)cc1OCC1CC1 (centres unmarked) [Compound No. 51, 6-(3-cyclopropylmethyloxy-4-methoxyphenyl)-3,6-dimethyl-3,4,5,6-tetrahydro-2H-1,3-oxazin-2-one] | No death was observed |
| CCCCOc1cc(C2(C)CCNC(=O)O2)ccc1OC (centres unmarked) [Compound No. 52, 6-(3-butoxy-4-methoxyphenyl)-6-methyl-3,4,5,6-tetrahydro-2H-1,3-oxazin-2-one] | No death was observed |
| CCCCOc1cc(C2CCN(C)C(=O)O2)ccc1OC (centres unmarked) [Compound No. 53, 6-(3-butoxy-4-methoxyphenyl)-3-methyl-3,4,5,6-tetrahydro-2H-1,3-oxazin-2-one] | No death was observed |
| CCCCOc1cc(C2(C)CCN(C)C(=O)O2)ccc1OC (centres unmarked) [Compound No. 54, 6-(3-butoxy-4-methoxyphenyl)-3,6-dimethyl-3,4,5,6-tetrahydro-2H-1,3-oxazin-2-one] | No death was observed |
| COc1ccc(C2CCNC(=O)O2)cc1OCCc1ccccn1 (centres unmarked) [Compound No. 55, 6-[4-methoxy-3-[2-(2-pyridyl)ethoxy]phenyl]-3,4,5,6-tetrahydro-2H-1,3-oxazin-2-one] | No death was observed |
| COc1ccc(C2CCNC(=O)O2)cc1OCC1(c2ccccc2)CC1 (centres unmarked) [Compound No. 56, 6-[4-methoxy-3-[(1-phenylcyclopropyl)methyloxy]phenyl]-3,4,5,6-tetrahydro-2H-1,3-oxazin-2-one] | No death was observed |
| COc1ccc(C2CCN(C)C(=O)O2)cc1OCC1(c2ccccc2)CC1 (centres unmarked) [Compound No. 57, 6-[4-methoxy-3-[(1-phenylcyclopropyl)methyloxy]phenyl]-3-methyl-3,4,5,6-tetrahydro-2H-1,3-oxazin-2-one] | No death was observed |
| COc1ccc(C2CCNC(=O)O2)cc1OC1c2ccccc2CCc2ccccc21 (centres unmarked) [Compound No. 58, 6-[3-(10,11-dihydro-5H-dibenzo[a,d]cyclohepten-5-yloxy)-4-methoxyphenyl]-3,4,5,6-tetrahydro-2H-1,3-oxazin-2-one] | No death was observed |
| COc1ccc(C2CCN(C)C(=O)O2)cc1OC1c2ccccc2CCc2ccccc21 (centres unmarked) [Compound No. 59, 6-[3-(10,11-dihydro-5H-dibenzo[a,d]cyclohepten-5-yloxy)-4-methoxyphenyl]-3-methyl-3,4,5,6-tetrahydro-2H-1,3-oxazin-2-one] | No death was observed |
